This test concerns L1210 leukemia ip in BDF1 mice, survival T/C. The test is described as follows: NCI In Vivo Anticancer Drug Screen. Data for tumor model L1210 Leukemia (intraperitoneal) in B6D2F1 (BDF1) mice. Conditions: T/C endpoint: mean survival time, higher T/C = longer survival.
Where [1] appears, read: dose: 200.0 mg/kg/injection, schedule: Q01DX009 (ip), vehicle: saline with Tween-80.
Where [2] appears, read: dose: 400.0 mg/kg/injection, schedule: Q01DX009 (ip), vehicle: saline with Tween-80.
Where [3] appears, read: dose: 400.0 mg/kg/injection, schedule: Q01DX009 (ip), vehicle: saline.
[4] abbreviates: dose: 400.0 mg/kg/injection, schedule: Q01DX001 (ip), vehicle: saline.
[5] abbreviates: dose: 100.0 mg/kg/injection, schedule: Q01DX009 (ip), vehicle: Klucel (hydroxypropylcellulose) (HPC).
Where [6] appears, read: dose: 200.0 mg/kg/injection, schedule: Q01DX009 (ip), vehicle: Klucel (hydroxypropylcellulose) (HPC).
Where [7] appears, read: dose: 400.0 mg/kg/injection, schedule: Q01DX009 (ip), vehicle: Klucel (hydroxypropylcellulose) (HPC).

Drawing on PubChem BioAssay AID248 (DTP/NCI, 2004), this text covers T/C and survivor count for 21 compounds.

The list is a part of this screen's results and no random one: it is rich in T/C values a quarter to a half above the control, in often repeated tests (any T/C) and in doses without a T/C. Other doses and runs of a compound stand elsewhere. T/C: endpoint of the treated group in % of that of the vehicle group. Some entries give survivors of the animals treated and no T/C: the source files T/C as zero there, which appears to mark a toxic dose or a test without result, not a measured value. Some survivor counts are full or nearly so, which does not show that the dose was tolerated: survival well below the control is almost never listed, so the zero probably covers shortened survival too. Survivors were counted at the toxicity check, usually on the fifth day, unless a day is given; later deaths do not show. Schedule codes are those of the source, read here as Q, the interval in days (D) or hours (H), X, the number of doses. Additions like (4×) count equal records among those shown. Some schedule codes hold Z or #, which are not explained here. Where survival is the endpoint, the PubChem record calls one and a half times the control and up active, and a quarter to a half above the control has no call in these data; cut-offs in other NCI protocols can differ. Some T/C values carry the count of animals alive at the toxicity check (mostly the fifth day); where none is given, no animal had died by that day.

Take `CCCCNC1=C(N2CC2)C(=O)C(NCCCC)=C(N2CC2)C1=O`: the T/C is, setting by setting: (dose: 5.0 mg/kg/injection, schedule: Q01DX009 (ip), vehicle: saline) 130 % of control; (dose: 6.25 mg/kg/injection, schedule: Q04DX003 (ip), vehicle: Klucel (hydroxypropylcellulose) (HPC)) 129 % of control; (dose: 8.2 mg/kg/injection, schedule: Q04DX003 (ip), vehicle: Klucel (hydroxypropylcellulose) (HPC)) 125 % of control; (dose: 10.0 mg/kg/injection, schedule: Q01DX009 (ip), vehicle: saline) 136 % of control; (dose: 12.5 mg/kg/injection, schedule: Q04DX003 (ip), vehicle: Klucel (hydroxypropylcellulose) (HPC)) 144 % of control. Moreover, the survivor count (dose: 25.0 mg/kg/injection, schedule: Q04DX003 (ip), vehicle: Klucel (hydroxypropylcellulose) (HPC)) was 5 of 6.

Turning to `Cc1c2[n+](cc3ccccc13)C(C)CC(=O)N2` (centres undefined), the survivor count (dose: 300.0 mg/kg/injection, schedule: Q01DX001 (ip), vehicle: saline) is listed as 0 of 6.

Regarding `CCN1CCCC(Nc2nc(C(Cl)(Cl)Cl)nc3cc(Cl)ccc23)C1` (centres undefined), the survivor count runs as follows: under setting [1], 4 of 6; under setting [2], 0 of 6.

For the compound `CC[N+](=Cc1ccccc1)C1CCCCC1`, the survivor count under setting [3] was 2 of 6.

`OCCN1CCC(CCCC2CCN(CCO)CC2)CC1`: the survivor count (dose: 300.0 mg/kg/injection, schedule: Q01DX Z (ip), vehicle: saline) is on record as 0 of 6.

Take `Cc1ccnc(NS(=O)(=O)c2ccc(N=[N+]=[N-])cc2)n1`: under “dose: 200.0 mg/kg/injection, schedule: Q01DX009 (ip), vehicle: carboxymethylcellulose (CMC)”, the survivor count is on record as 3 of 3.

`CNc1nc(Nc2ccc(C3=NCCN3)cc2)nc(Nc2ccc(C3=NCCN3)cc2)n1`: the T/C is 132 % of control (dose: 30.0 mg/kg/injection, schedule: Q01DX Z (ip), vehicle: saline) and 148 % of control [5 of 6 alive] (dose: 45.0 mg/kg/injection, schedule: Q01DX Z (ip), vehicle: saline). Further, the survivor count by setting is: (dose: 60.0 mg/kg/injection, schedule: Q01DX015 (ip), vehicle: water) 1 of 6; (dose: 100.0 mg/kg/injection, schedule: Q01DX001 (ip), vehicle: water) 3 of 6; (dose: 150.0 mg/kg/injection, schedule: Q01DX001 (ip), vehicle: water) 0 of 6; (dose: 300.0 mg/kg/injection, schedule: Q01DX001 (ip), vehicle: water) 0 of 6; (dose: 600.0 mg/kg/injection, schedule: Q01DX001 (ip), vehicle: water) 0 of 6.

As to `O=C1c2ccccc2C(=O)C1(Br)Br`, the survivor count under setting [4] is 0 of 4.

In the case of `COC(=O)c1ccc(CBr)cc1`, under “dose: 200.0 mg/kg/injection, schedule: Q04DX003 (ip), vehicle: saline with Tween-80”, the survivor count was 5 of 6.

Turning to `Cc1cn(-c2ccccc2)c(=O)[nH]c1=O`, the survivor count runs as follows: (dose: 200.0 mg/kg/injection, schedule: Q01DX001 (ip), vehicle: other) 3 of 6; (dose: 400.0 mg/kg/injection, schedule: Q01DX001 (ip), vehicle: other) 0 of 6.

For `NC(=S)N/N=C/c1ccc2c(c1)OCO2`, under “dose: 400.0 mg/kg/injection, schedule: Q04DX003 (ip), vehicle: saline with Tween-80”, the survivor count is recorded as 2 of 6.

`O=C1CC2CC(=O)CC2C1` (centres undefined): the survivor count under setting [3] is listed as 0 of 6.

On to `C=C1CC2(CCC3(CC2)CC(=C)C(=O)O3)OC1=O` (centres undefined), for which the survivor count reads like this: (dose: 100.0 mg/kg/injection, schedule: Q04DX003 (ip), vehicle: saline) 1 of 4; (dose: 200.0 mg/kg/injection, schedule: Q04DX003 (ip), vehicle: saline) 0 of 4; (dose: 400.0 mg/kg/injection, schedule: Q04DX003 (ip), vehicle: saline) 0 of 4.

As for `Clc1ccc(SSC(Cl)(Cl)Cl)cc1`, the survivor count is, setting by setting: under setting [5], 0 of 6; under setting [6], 4 of 6; under setting [7], 0 of 6.

Turning to `Cc1ncc(C(C)(O)c2ccccc2)n1C` (centres undefined), the survivor count under setting [2] is on record as 0 of 6.

For the compound `O=C1OC(=O)c2c(O)cccc21`, the survivor count was 3 of 6 (dose: 225.0 mg/kg/injection, schedule: Q01DX009 (ip), vehicle: saline with Tween-80) and 0 of 6 (dose: 335.0 mg/kg/injection, schedule: Q01DX009 (ip), vehicle: saline with Tween-80).

On to `O=C(O)C(CNC(=O)C(F)(F)F)Cc1ccc([N+](=O)[O-])cc1` (centres undefined), for which the survivor count (dose: 50.0 mg/kg/injection, schedule: Q01DX009 (ip), vehicle: saline with Tween-80) is reported as 3 of 3; the survivor count (dose: 50.0 mg/kg/injection, schedule: Q01DX009 (ip), vehicle: saline) is on record as 3 of 3; the survivor count under setting [1] was 3 of 3.

In the case of `CC(C)C1=CC23CCC4C(C)(C(=O)O)CCCC4(C)C2CC1C1C(=O)OC(=O)C13` (centres undefined), the survivor count by setting is: under setting [5], 0 of 6; (dose: 100.0 mg/kg/injection, schedule: Q04DX003 (ip), vehicle: Klucel (hydroxypropylcellulose) (HPC)) 4 of 6; under setting [6], 0 of 6; (dose: 200.0 mg/kg/injection, schedule: Q04DX003 (ip), vehicle: Klucel (hydroxypropylcellulose) (HPC)) 0 of 6; under setting [7], 0 of 6 (2×); (dose: 400.0 mg/kg/injection, schedule: Q04DX003 (ip), vehicle: Klucel (hydroxypropylcellulose) (HPC)) 0 of 6.

In the case of `OCC1OC(n2ccc3c([Se])ncnc32)C(O)C1O` (centres undefined), the survivor count (dose: 200.0 mg/kg/injection, schedule: Q01DX005 (ip), vehicle: saline) is 1 of 6.

With `CCOC(=O)C(CC(C)C)NC(=O)C(Cc1ccc(N(CCCl)CCCl)cc1)NC(C)=O` (centres undefined), the T/C was 138 % of control (dose: 64.0 mg/kg/injection, schedule: Q01DX009 (ip), vehicle: other); 127 % of control (dose: 75.0 mg/kg/injection, schedule: Q01DX001 (ip), vehicle: DMSO); 126 % of control (2×) (dose: 100.0 mg/kg/injection, schedule: Q01DX001 (ip), vehicle: DMSO); 132 % of control (dose: 150.0 mg/kg/injection, schedule: Q01DX001 (ip), vehicle: DMSO); 129 % of control (dose: 150.0 mg/kg/injection, schedule: Q01DX001 (ip), vehicle: olive oil, sesame oil, peanut oil); 141 % of control (dose: 225.0 mg/kg/injection, schedule: Q01DX001 (ip), vehicle: DMSO). In addition, the T/C is, setting by setting: (dose: 225.0 mg/kg/injection, schedule: Q01DX001 (ip), vehicle: olive oil, sesame oil, peanut oil) 130 % of control; (dose: 500.0 mg/kg/injection, schedule: Q01DX001 (oral), vehicle: olive oil, sesame oil, peanut oil) 137 % of control; (dose: 750.0 mg/kg/injection, schedule: Q01DX001 (oral), vehicle: olive oil, sesame oil, peanut oil) 143 % of control; (dose: 1000.0 mg/kg/injection, schedule: Q01DX001 (oral), vehicle: olive oil, sesame oil, peanut oil) 129 % of control [9 of 10 alive]. In addition, the survivor count is reported as 9 of 10 (dose: 128.0 mg/kg/injection, schedule: Q01DX009 (ip), vehicle: other); 1 of 10 (dose: 256.0 mg/kg/injection, schedule: Q01DX009 (ip), vehicle: other); 7 of 10 (dose: 2000.0 mg/kg/injection, schedule: Q01DX001 (oral), vehicle: olive oil, sesame oil, peanut oil).

Take `c1ccc(CCN2CCN(CCc3ccccn3)CC2)nc1`: the survivor count (dose: 200.0 mg/kg/injection, schedule: Q01DX001 (ip), vehicle: saline) is recorded as 1 of 4 and the survivor count under setting [4] was 0 of 4.
